Test results reported in patent US20250270321A1, “METHODS OF TREATING LUNG CANCER BY ADMINISTERING A PD-1 INHIBITOR” (priority 2021, published 2025).

Tested on: advanced NSCLC
Assay: EMPOWER-Lung 1 hospitalization and supportive care medication (SCM) utilization, safety population
[1] = total duration of SCM type/treatment-emergent period

Substance: cemiplimab
- Difference in ratio (CHEMO − CEMI): Anti-anemic (SCM utilization ratio): 211.79 in 1000 days
- Difference in ratio (CHEMO − CEMI): Antibacterial for systemic use (SCM utilization ratio): 16.37 in 1000 days
- Difference in ratio (CHEMO − CEMI): Antidiarrheal (SCM utilization ratio): −6.65 in 1000 days
- Difference in ratio (CHEMO − CEMI): Antimycotic for systemic use (SCM utilization ratio): 1.49 in 1000 days
- Difference in ratio (CHEMO − CEMI): Antiviral for systemic use (SCM utilization ratio): −0.33 in 1000 days
- Difference in ratio (CHEMO − CEMI): Appetite stimulant (SCM utilization ratio): 20.49 in 1000 days
- Difference in ratio (CHEMO − CEMI): Bone disease treatment (SCM utilization ratio): 15.75 in 1000 days
- Difference in ratio (CHEMO − CEMI): Corticosteroid for systemic use (SCM utilization ratio): 145.06 in 1000 days
- Difference in ratio (CHEMO − CEMI): Immunostimulant (SCM utilization ratio): 14.60 in 1000 days
- Difference in ratio (CHEMO − CEMI): Opiate (SCM utilization ratio): 79.04 in 1000 days
- Difference in ratio (CHEMO − CEMI): PRBC transfusion (SCM utilization ratio): 0.37 in 1000 days
- Difference in ratio (CHEMO − CEMI): Platelet transfusion (SCM utilization ratio): 0.04 in 1000 days
- Difference in ratio (CHEMO − CEMI): Antiemetic/antinauseant (in vivo): 202.90 in 1000 days
- SCM utilization ratio: Antiemetic/antinauseant (in vivo): 2.52 in 1000 days
- SCM utilization ratio: Anti-anemic [1]: 52.49 in 1000 days
- SCM utilization ratio: Antibacterial for systemic use [1]: 22.34 in 1000 days
- SCM utilization ratio: Antidiarrheal [1]: 10.57 in 1000 days
- SCM utilization ratio: Antimycotic for systemic use [1]: 0.87 in 1000 days
- SCM utilization ratio: Antiviral for systemic use [1]: 1.16 in 1000 days
- SCM utilization ratio: Appetite stimulant [1]: 5.13 in 1000 days
- SCM utilization ratio: Bone disease treatment [1]: 3.07 in 1000 days
- SCM utilization ratio: Corticosteroid for systemic use [1]: 26.71 in 1000 days
- SCM utilization ratio: Immunostimulant [1]: 0.21 in 1000 days
- SCM utilization ratio: Opiate [1]: 70.90 in 1000 days
- SCM utilization ratio: PRBC transfusion [1]: 0.07 in 1000 days
- SCM utilization ratio: Platelet transfusion [1]: 0.01 in 1000 days
